# This is one part of the list.
# Compound: CC1Cc2ccccc2N1C(=O)C1CCCN(C1)C(=O)CCl (mixture of isomers) [TRIM25 ligand 11 (diastereomer mixture)]
# Assay: probe-labelled cysteine peptide fold change vs DMSO (competition) (log2 fold change); higher = less target engagement (more negative = stronger competition)
# Conditions: THP-1, incubation time: 4 h
# 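Further: competitive chemoproteomic profiling in live THP-1 cells with an iodoacetamide desthiobiotin (IA-DTB) probe, comparing probe-labelled peptide intensities in compound-treated cells against DMSO-treated controls.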
Target,probe-labelled cysteine peptide fold change (10 µM),probe-labelled cysteine peptide fold change (50 µM)
RAB22A_Q9UL26_120_CDLIDVR (UniProt Q9UL26),-0.0323,0.0334
PXN_P49023_361_GVCGACK (UniProt P49023),0.0145,0.211
PYGB_P11216_446_RINMAHLCVIGSHAVNGVAR (UniProt P11216),0.00122,0.274
QTRT1_Q9BXR0_317_DFGPIDPECTCPTCQK (UniProt Q9BXR0),0.212,0.108
PYGB_P11216_446_INMAHLCVIGSHAVNGVAR (UniProt P11216),-0.0787,-0.0246
RACGAP1_Q9H0H5_93_AEADCEK (UniProt Q9H0H5),0.0788,0.135
PUM3_Q15397_371_VAMHCLWHGTPK (UniProt Q15397),0.0661,-0.0747
RAD51B_O15315_185_ELTCDEVLQR (UniProt O15315),0.00703,0.0945
RABL3_Q5HYI8_180_TAFLAEDFNPEEINLDCTNPR (UniProt Q5HYI8),-0.125,-0.104
RACGAP1_Q9H0H5_419_VDDIHAICSLLK (UniProt Q9H0H5),-0.0954,0.00119
RACK1_P63244_240_HLYTLDGGDIINALCFSPNR (UniProt P63244),0.0157,0.0697
RABGAP1L_Q5R372_554_AEVWQLLAGCHDNQAMLDR (UniProt Q5R372),0.152,-0.00881
RAD50_Q92878_788_VCLTDVTIMER (UniProt Q92878),0.0899,0.0746
RABEPK_Q7Z6M1_222_FYDDLHCIDISDMK (UniProt Q7Z6M1),0.0323,0.12
PUM2_Q8TB72_887_GQVFVLSTHPYGCR (UniProt Q8TB72),0.182,-0.00723
RABIF_P47224_97_FLVCADCEIGPIGWHCLDDK (UniProt P47224),0.176,-0.00218
PYGB_P11216_496_WLLLCNPGLADTIVEK (UniProt P11216),0.0579,-0.0203
RAB14_P61106_26_SCLLHQFTEKK (UniProt P61106),-0.449,-0.303
RAB10_P61026_124_CDMDDKR (UniProt P61026),-0.21,-0.229

Target,probe-labelled cysteine peptide fold change (10 µM),probe-labelled cysteine peptide fold change (50 µM)
RABGAP1_Q9Y3P9_1026_LQLVEAECK (UniProt Q9Y3P9),0.132,0.135
R3HCC1L_Q7Z5L2_665_VFCSYQK (UniProt Q7Z5L2),-0.0725,0.147
RAB11FIP1_Q6WKZ4_1192_VANCSLGTATIISENLNNEVMMK (UniProt Q6WKZ4),-0.215,-0.12
RAB3GAP1_Q15042_678_MQSACLLSDMESFK (UniProt Q15042),0.12,-0.101
RAB3GAP2_Q9H2M9_391+395_RHGESICLSPCNTLAAVTDDFGR (UniProt Q9H2M9),0.0846,0.0437
RAB3D_O95716_137_TYSWDNAQVILVGNKCDLEDER (UniProt O95716),-0.197,-0.381
PYCR3_Q53H96_129_VLPNLPCVVQEGAIVMAR (UniProt Q53H96),0.0485,0.0926
RAB3GAP1_Q15042_181_MYVGECQGPGVR (UniProt Q15042),0.104,0.177
QTRT2_Q9H974_312_CMDQIK (UniProt Q9H974),-0.0399,-0.112
PXN_P49023_523_ECFTPFVNGSFFEHDGQPYCEVHYHER (UniProt P49023),0.0258,0.0357
RAB3GAP2_Q9H2M9_395_RHGESICLSPCNTLAAVTDDFGR (UniProt Q9H2M9),-0.0512,0.0695
RABGAP1_Q9Y3P9_230_GHDGTPESDCFAFTESHYNAELFR (UniProt Q9Y3P9),0.0118,-0.0552
PYCR1_P32322_262_SLLINAVEASCIR (UniProt P32322),0.0613,0.117
RAB7B_Q96AH8_142_KVPQEVAQGWCR (UniProt Q96AH8),-0.0176,0.142
PUS10_Q3MIT2_21_HVAQLLLNTGTCPR (UniProt Q3MIT2),-0.158,0.113
RAB29_O14966_127_CDLSPWAVSR (UniProt O14966),0.00041,-0.0201
QSOX2_Q6ZRP7_131_NQAVCHDYDIHFYPTFR (UniProt Q6ZRP7),-0.0912,-0.028
RACK1_P63244_240+249_HLYTLDGGDIINALCFSPNRYWLCAATGPSIK (UniProt P63244),-0.547,-0.346
RAB11FIP5_Q9BXF6_337_SSLCVNGSHIYNEEPQGPVR (UniProt Q9BXF6),-0.00352,-0.406

# Complete entries, quoted from the list. Values in the order: probe-labelled cysteine peptide fold change (10 µM) | probe-labelled cysteine peptide fold change (50 µM)
# QTRT2_Q9H974_312_CMDQIK (UniProt Q9H974) as listed: -0.0399 | -0.112
# RAB7B_Q96AH8_142_KVPQEVAQGWCR (UniProt Q96AH8) as listed: -0.0176 | 0.142

# From the supplement of paper PMC12067093, “Discovery and optimisation of a covalent ligand for TRIM25 and its application to targeted protein ubiquitination” (Chemical Science, 2025)
